Data from the M2OR odorant receptor database.
This is a selection; strong and weak results do not stand in their true shares. The calls were merged from several studies; some rest on single wells. Some of the results follow.

How the values were obtained:
Conditions in all cases: stereoisomer not certain
[1] = test system: T1, OR6S1
T1 sequence (whole entry): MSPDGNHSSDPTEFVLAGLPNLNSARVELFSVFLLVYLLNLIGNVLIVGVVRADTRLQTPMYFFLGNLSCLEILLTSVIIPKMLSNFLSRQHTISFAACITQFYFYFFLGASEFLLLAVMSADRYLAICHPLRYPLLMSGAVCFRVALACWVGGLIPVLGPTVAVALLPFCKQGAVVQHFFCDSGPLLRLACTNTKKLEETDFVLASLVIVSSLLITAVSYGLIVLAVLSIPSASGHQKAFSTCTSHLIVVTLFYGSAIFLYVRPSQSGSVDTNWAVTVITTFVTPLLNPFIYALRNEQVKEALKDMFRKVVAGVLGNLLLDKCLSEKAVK
Outline: (§1)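 Each receptor–molecule pair is labelled responsive or non-responsive (inactive) according to whether the original authors judged the measured signal statistically different from baseline. The data were taken from the main text and supplementary material of published papers and checked for typos and inconsistencies. Assay methods differed by source, with transient luciferase assays in mammalian cell lines being common.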

[2] = test system: T2, OR6T1
T2 sequence (whole entry): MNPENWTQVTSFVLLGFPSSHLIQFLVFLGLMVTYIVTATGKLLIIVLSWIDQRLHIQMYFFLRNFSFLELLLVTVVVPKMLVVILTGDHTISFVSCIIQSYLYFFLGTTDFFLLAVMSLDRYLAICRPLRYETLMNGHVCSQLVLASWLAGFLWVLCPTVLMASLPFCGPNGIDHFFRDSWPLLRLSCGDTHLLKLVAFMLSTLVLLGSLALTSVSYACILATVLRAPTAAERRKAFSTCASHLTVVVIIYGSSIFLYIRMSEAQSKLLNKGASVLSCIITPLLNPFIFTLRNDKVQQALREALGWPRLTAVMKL
Outline: as §1

[3] = target: T3, OR6V1 (Homo sapiens) (UniProt Q8N148)
T3 sequence (whole entry): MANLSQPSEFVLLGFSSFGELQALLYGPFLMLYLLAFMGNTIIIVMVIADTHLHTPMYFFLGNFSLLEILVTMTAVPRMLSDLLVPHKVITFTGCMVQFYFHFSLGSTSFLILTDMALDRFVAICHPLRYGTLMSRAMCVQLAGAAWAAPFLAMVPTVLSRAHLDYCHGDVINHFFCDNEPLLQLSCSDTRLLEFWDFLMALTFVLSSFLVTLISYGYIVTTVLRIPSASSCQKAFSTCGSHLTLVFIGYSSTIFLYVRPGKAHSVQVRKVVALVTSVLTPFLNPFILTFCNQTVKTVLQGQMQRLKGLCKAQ
Outline: as §1

[4] = target: T4, OR6X1 (Homo sapiens) (UniProt Q8NH79)
T4 sequence (whole entry): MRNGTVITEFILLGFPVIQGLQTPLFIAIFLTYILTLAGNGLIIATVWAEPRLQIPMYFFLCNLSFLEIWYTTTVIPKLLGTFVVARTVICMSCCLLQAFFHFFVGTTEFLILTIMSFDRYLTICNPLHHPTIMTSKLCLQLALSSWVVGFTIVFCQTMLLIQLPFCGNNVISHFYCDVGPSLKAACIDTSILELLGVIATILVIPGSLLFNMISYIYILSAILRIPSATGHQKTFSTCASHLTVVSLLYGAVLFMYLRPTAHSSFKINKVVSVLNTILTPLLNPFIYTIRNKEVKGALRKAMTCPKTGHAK
Outline: as §1

[5] = test system: T5, OR6Y1
T5 sequence (whole entry): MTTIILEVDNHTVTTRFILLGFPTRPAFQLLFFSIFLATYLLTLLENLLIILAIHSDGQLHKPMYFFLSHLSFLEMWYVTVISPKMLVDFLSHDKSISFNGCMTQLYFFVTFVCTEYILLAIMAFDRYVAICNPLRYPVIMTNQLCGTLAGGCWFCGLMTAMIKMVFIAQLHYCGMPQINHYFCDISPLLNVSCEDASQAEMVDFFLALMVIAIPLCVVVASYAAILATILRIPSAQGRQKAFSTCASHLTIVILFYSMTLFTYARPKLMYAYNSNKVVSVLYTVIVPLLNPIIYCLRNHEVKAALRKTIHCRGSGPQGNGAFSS
Outline: as §1

[6] = target: T6, OR7A10 (Homo sapiens) (UniProt O76100)
T6 sequence (whole entry): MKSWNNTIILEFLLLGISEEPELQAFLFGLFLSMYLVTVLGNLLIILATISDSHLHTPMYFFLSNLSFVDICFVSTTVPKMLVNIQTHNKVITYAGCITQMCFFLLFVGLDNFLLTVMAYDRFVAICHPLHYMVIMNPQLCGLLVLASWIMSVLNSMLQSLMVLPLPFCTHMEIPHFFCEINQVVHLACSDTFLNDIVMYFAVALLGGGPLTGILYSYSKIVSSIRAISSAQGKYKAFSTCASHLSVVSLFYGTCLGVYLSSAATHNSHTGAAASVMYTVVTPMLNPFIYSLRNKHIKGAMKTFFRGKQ
Outline: as §1

[7] = target: T7, OR7A17 (Homo sapiens) (UniProt O14581)
T7 sequence (whole entry): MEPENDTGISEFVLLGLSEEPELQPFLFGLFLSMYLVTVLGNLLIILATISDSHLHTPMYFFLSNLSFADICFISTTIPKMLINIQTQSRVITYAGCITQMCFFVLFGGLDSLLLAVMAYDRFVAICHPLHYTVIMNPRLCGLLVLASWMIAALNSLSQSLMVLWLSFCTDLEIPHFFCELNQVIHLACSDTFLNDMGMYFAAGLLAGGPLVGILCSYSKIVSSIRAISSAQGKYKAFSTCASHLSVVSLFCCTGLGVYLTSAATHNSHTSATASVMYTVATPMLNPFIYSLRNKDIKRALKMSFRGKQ
Outline: as §1

[8] = target: T8, OR7A5 (Homo sapiens) (UniProt Q15622)
T8 sequence (whole entry): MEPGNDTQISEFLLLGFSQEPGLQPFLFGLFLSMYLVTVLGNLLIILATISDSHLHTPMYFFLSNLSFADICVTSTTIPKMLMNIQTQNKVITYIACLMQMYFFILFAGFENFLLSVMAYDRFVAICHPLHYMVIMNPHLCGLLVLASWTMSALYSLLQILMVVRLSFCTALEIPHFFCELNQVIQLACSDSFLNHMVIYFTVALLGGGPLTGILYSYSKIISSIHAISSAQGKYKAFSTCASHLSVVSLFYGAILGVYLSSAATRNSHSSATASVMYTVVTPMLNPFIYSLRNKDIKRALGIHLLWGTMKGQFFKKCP
Outline: as §1

[9] = test system: T9, OR7C1
T9 sequence (whole entry): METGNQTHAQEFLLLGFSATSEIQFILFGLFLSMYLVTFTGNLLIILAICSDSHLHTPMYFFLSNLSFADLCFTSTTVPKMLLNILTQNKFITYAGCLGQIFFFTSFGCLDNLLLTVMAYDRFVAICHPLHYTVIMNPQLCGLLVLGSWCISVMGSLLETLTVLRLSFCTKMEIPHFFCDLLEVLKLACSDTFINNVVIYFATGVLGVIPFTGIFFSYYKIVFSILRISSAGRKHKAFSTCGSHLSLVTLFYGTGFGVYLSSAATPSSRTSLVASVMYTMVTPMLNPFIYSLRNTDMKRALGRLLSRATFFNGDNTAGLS
Outline: as §1

[10] = test system: T10, OR7C2
T10 sequence (whole entry): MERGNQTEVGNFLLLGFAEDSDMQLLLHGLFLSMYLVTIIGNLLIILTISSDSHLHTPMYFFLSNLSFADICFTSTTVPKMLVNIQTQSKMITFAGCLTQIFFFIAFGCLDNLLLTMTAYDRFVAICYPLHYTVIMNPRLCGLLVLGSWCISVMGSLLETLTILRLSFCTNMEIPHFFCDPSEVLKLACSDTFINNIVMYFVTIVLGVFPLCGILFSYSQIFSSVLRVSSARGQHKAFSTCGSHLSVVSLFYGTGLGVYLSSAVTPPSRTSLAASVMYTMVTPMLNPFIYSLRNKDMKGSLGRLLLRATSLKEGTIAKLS
Outline: as §1

Measured: odorant receptor agonist call;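 note: active if original authors judged signal statistically different from baseline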

CCCCOC(C)=O
inactive: all assays above
